Laboratory results as given in article PMC7819943, “Rice protein-binding microarrays: a tool to detect cis-acting elements near promoter regions in rice”.
The other results are listed elsewhere or left out.

Each sequence was assayed against T1, OsSMF1 (Oryza sativa, UniProt Q6ZLB0 1-436) (assay: protein-binding microarray (RPBM); PBS, 2% BSA, 51.3 ng/ul salmon testes DNA, 50 uM zinc acetate, 200 nM TF, 25 C, 1 h; high values mean tight binding). Details: protein: recombinant; tags: N-terminal polyhistidine and DsRed monomer fusion (pET32a); chain copies: 2; label: CyDye5-dUTP incorporated in the synthesized complementary strand; 3' TTTTT single-stranded linker to array surface; dsDNA, one strand shown.
T1 sequence: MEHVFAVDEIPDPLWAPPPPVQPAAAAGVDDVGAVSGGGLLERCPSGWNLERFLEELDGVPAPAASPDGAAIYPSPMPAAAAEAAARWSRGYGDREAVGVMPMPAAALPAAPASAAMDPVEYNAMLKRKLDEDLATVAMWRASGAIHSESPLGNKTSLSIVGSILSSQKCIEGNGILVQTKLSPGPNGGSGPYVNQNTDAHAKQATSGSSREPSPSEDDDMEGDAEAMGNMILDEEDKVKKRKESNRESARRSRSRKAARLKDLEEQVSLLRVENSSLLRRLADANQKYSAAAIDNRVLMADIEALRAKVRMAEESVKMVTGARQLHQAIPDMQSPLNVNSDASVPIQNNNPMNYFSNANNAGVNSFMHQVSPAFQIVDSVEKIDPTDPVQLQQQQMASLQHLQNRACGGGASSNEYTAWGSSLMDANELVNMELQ
Summary of the method: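 Per-feature fluorescence intensity (arbitrary units), read on an Axon 4000B scanner, is the binding signal. Transcription factors carrying an N-terminal polyhistidine tag and DsRed fusion were expressed in E. coli BL21-CodonPlus and purified on Ni–NTA. A custom Agilent array, made double-stranded by primer extension with Cy5-dUTP and blocked with 2% BSA, was incubated with 200 nM protein in PBS, 2% BSA, salmon testes DNA and 50 µM zinc acetate at 25 °C for 1 h and then washed.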

Row | Sequence | binding signal
1 | CATCATGTCCTATCTGAACTGTTACAACCACGACGTAGTACGGAGTCACCTAGTGCAG | 3320 fluorescence intensity (a.u.)
2 | AGATTAGGTTGCTGTAGCCATGACTGTGAGTTGTGACTAGCGGAGTCACCTAGTGCAG | 4030 fluorescence intensity (a.u.)
3 | GCTCGTGATATCCGAGGCCACTCACTTCACTTCCTACACACGGAGTCACCTAGTGCAG | 29500 fluorescence intensity (a.u.)
4 | AAGTGGGCCATTAATAAATACATCATCTCTCTTTTATACCCGGAGTCACCTAGTGCAG | 3350 fluorescence intensity (a.u.)
5 | CCGAATCCGGCCACCCCGCCGCCTCCACGCGCATCACCGCCGGAGTCACCTAGTGCAG | 3220 fluorescence intensity (a.u.)
6 | ACCTCCGGCCCACGGACGCGACGCGCTTACACACATGGCCCGGAGTCACCTAGTGCAG | 3580 fluorescence intensity (a.u.)
7 | AGAAAAGGAGGAAAAGAATTTCCCTGGGATTTAAAATATTCGGAGTCACCTAGTGCAG | 26300 fluorescence intensity (a.u.)
8 | TCACTCCAGTCCAATGCACTCATCGCAGCCATGATGAATGCGGAGTCACCTAGTGCAG | 3980 fluorescence intensity (a.u.)
9 | AACGTATCTCATGGGCGATCGATGACGACGTCGTGGCGTCCGGAGTCACCTAGTGCAG | 6660 fluorescence intensity (a.u.)
10 | TTTCCTATTCGTAGCCAATGCAACTGCATCCTGGAACGATCGGAGTCACCTAGTGCAG | 19200 fluorescence intensity (a.u.)
11 | CCAAAATTATTTCTAAAGCCACTATTGATGGAAGCAAAACCGGAGTCACCTAGTGCAG | 5210 fluorescence intensity (a.u.)
12 | CGCTCGACTTCTCTTCTCTCATACACGTGTCATTAAATTTCGGAGTCACCTAGTGCAG | 8480 fluorescence intensity (a.u.)
13 | CTGTTGATGCCATTGCAAAGGTACGATGTGCTTAGTGTTTCGGAGTCACCTAGTGCAG | 15500 fluorescence intensity (a.u.)
14 | TTTGCCAAGCCACGGTTTTGTGGCTATGCGTTGGATGACGCGGAGTCACCTAGTGCAG | 4640 fluorescence intensity (a.u.)
15 | GGTCTCATGTCCAGCTGTTTGAATTTTGTACCTGAAATATCGGAGTCACCTAGTGCAG | 3140 fluorescence intensity (a.u.)
16 | TTGTATATTCCATCGTAATCAAAGGCATTGGCGCGCAAACCGGAGTCACCTAGTGCAG | 14500 fluorescence intensity (a.u.)
17 | CAGACCCAACGTCGCCGTTGTTGGACCGCATGACGCAGCTCGGAGTCACCTAGTGCAG | 5180 fluorescence intensity (a.u.)
18 | GATCTGGTGAGGTGTCCAAAGTTGCTAATGTCCAATTGCTCGGAGTCACCTAGTGCAG | 5410 fluorescence intensity (a.u.)
19 | ACTAGACGCATGCATCATCTACTTGCCTAAATTAGAGAGACGGAGTCACCTAGTGCAG | 3440 fluorescence intensity (a.u.)
20 | ATTTCCACCTCACCCAACCCTGCCACGTCAATCTATCATACGGAGTCACCTAGTGCAG | 13500 fluorescence intensity (a.u.)
21 | CCTTGCCGCTGTACCAGCCGACGGTGACGATCTCAGCGCTCGGAGTCACCTAGTGCAG | 3260 fluorescence intensity (a.u.)
22 | GGTTATCAGTTCTGTGGGTTCGACACGTGCAGGACTCAACCGGAGTCACCTAGTGCAG | 3200 fluorescence intensity (a.u.)
23 | GCCGCAACTTCGCAAGGGTCGGAGTCGCACGCGAACCCGCCGGAGTCACCTAGTGCAG | 20800 fluorescence intensity (a.u.)
24 | TACAAATAAAACATAACCAGACCATACTACAAGTCACTCCCGGAGTCACCTAGTGCAG | 3200 fluorescence intensity (a.u.)
25 | GACTCTGTGCGCTCCATGTCATCCATCGTGCGGCCCACGTCGGAGTCACCTAGTGCAG | 4250 fluorescence intensity (a.u.)
26 | TGCGTTTTGCAATCCTCTGTTTTACACTTAGGGCCCCTTTCGGAGTCACCTAGTGCAG | 20100 fluorescence intensity (a.u.)
27 | ATGACTTACCTTCTACATGTTGACTTTCAGGAGTGACTGTCGGAGTCACCTAGTGCAG | 3980 fluorescence intensity (a.u.)

From no. 11 up to 13, as listed above:
Row | Sequence | binding signal
11 | CCAAAATTATTTCTAAAGCCACTATTGATGGAAGCAAAACCGGAGTCACCTAGTGCAG | 5210 fluorescence intensity (a.u.)
12 | CGCTCGACTTCTCTTCTCTCATACACGTGTCATTAAATTTCGGAGTCACCTAGTGCAG | 8480 fluorescence intensity (a.u.)
13 | CTGTTGATGCCATTGCAAAGGTACGATGTGCTTAGTGTTTCGGAGTCACCTAGTGCAG | 15500 fluorescence intensity (a.u.)

Later entries

Row | Sequence | binding signal
28 | GAAGATAGTACTAACTATATTTTGTAACGGAGAGATTGTTCGGAGTCACCTAGTGCAG | 4130 fluorescence intensity (a.u.)
29 | TGTACTTCCGATGACACGTCGACGCTCTTGTGTGTTGTGTCGGAGTCACCTAGTGCAG | 21400 fluorescence intensity (a.u.)
30 | CCGACGAGCCGTCGCCACGTGGACGAGGCGGCGGCGGCGGCGGAGTCACCTAGTGCAG | 7180 fluorescence intensity (a.u.)
31 | ACATTGACTCAGCCACCACGTCACCTAAAATCGGGAACAGCGGAGTCACCTAGTGCAG | 13000 fluorescence intensity (a.u.)
32 | TAGTTGGCCAAAAGGTCCGCAGCCTGATGGCCCAGCCCACCGGAGTCACCTAGTGCAG | 30800 fluorescence intensity (a.u.)
33 | GGCCGACCTCGATGATGAGTTGTCACCCTCAAATTGGGCCCGGAGTCACCTAGTGCAG | 6070 fluorescence intensity (a.u.)
34 | GACAACAAACAACATTATCTCGATCCCGACCAGCTCAGCCCGGAGTCACCTAGTGCAG | 3840 fluorescence intensity (a.u.)
35 | AGAAAGGAGGCTGATGTGGCCACGCTGACATGTGGGGCCCCGGAGTCACCTAGTGCAG | 8790 fluorescence intensity (a.u.)
36 | GCACAGGCGTGTGGGGTTGGCAAAAGTAAAGCTGAAGGAGCGGAGTCACCTAGTGCAG | 3190 fluorescence intensity (a.u.)
37 | GGCCCGCGGCGGAGTGCGGAGGGGAGGGGTGACGACGGAGCGGAGTCACCTAGTGCAG | 3450 fluorescence intensity (a.u.)
38 | ATAGTTTCCATAAACTCCACATCATCAAGAAACTAGTACTCGGAGTCACCTAGTGCAG | 12600 fluorescence intensity (a.u.)
39 | TTTCTGTGACGGCCCGCGTAGCTTCGGAGGAAGCGACCACCGGAGTCACCTAGTGCAG | 47700 fluorescence intensity (a.u.)
40 | CCGTGCCATCTAAGCGCCACGTCAACCTCACAGACTAGGTCGGAGTCACCTAGTGCAG | 18400 fluorescence intensity (a.u.)
41 | TGCGTCTCTGAAAAGATAATTCAGTGCCATGTGCTGCTGCCGGAGTCACCTAGTGCAG | 3270 fluorescence intensity (a.u.)
42 | CTTCGATTCATTCCTCACGCACACACACTCTACTACTAGTCGGAGTCACCTAGTGCAG | 5080 fluorescence intensity (a.u.)
43 | TAGGATATTTAGTTGTGCTTGCAATGATGTCATTGCTTGTCGGAGTCACCTAGTGCAG | 9340 fluorescence intensity (a.u.)
44 | ACTAGTGGCAACGGCAGACGAGAGAAAGATGGTGCCGACCCGGAGTCACCTAGTGCAG | 23800 fluorescence intensity (a.u.)
45 | TACAGCCCGCTTCTCCTCTCTCTCCTCCACCTCAGCATTTCGGAGTCACCTAGTGCAG | 7920 fluorescence intensity (a.u.)
46 | CGCGGACTCGCATATCGCTCGCCAGCGCGGACACCCCTGCCGGAGTCACCTAGTGCAG | 4420 fluorescence intensity (a.u.)
47 | ATTGCGTGACAAATACCATGACTTAAACGACACGTCGACCCGGAGTCACCTAGTGCAG | 8190 fluorescence intensity (a.u.)
48 | TGACGTGTGGGTCCCACATGCTGAGTCAGCTAGTTTGACTCGGAGTCACCTAGTGCAG | 21100 fluorescence intensity (a.u.)
49 | CGGCGTGGCCGCTGCGTCACGGGCGACTGCGCCAGCGTGCCGGAGTCACCTAGTGCAG | 5890 fluorescence intensity (a.u.)
50 | GGCGCGCGTCGCGTCGGCGGCGTGGCGTGTCGCCCAGCGTCGGAGTCACCTAGTGCAG | 4590 fluorescence intensity (a.u.)
51 | GGGGCTAAAATTTTAGTCCATGTCACATCGGATGTTTGACCGGAGTCACCTAGTGCAG | 3400 fluorescence intensity (a.u.)
52 | AATTGTGCTGTGGAGTTGTGATGTGGATTTGGGGTTCAATCGGAGTCACCTAGTGCAG | 5440 fluorescence intensity (a.u.)
53 | AAGAACAACCCAGCGTCGACTAATCCACTACACACCACGTCGGAGTCACCTAGTGCAG | 3540 fluorescence intensity (a.u.)
54 | GATTAGTCCACCATGGACCGTGTGTGCACGTGGAGAAGGACGGAGTCACCTAGTGCAG | 3740 fluorescence intensity (a.u.)
